Among the data in PubChem BioAssay AID272 (DTP/NCI, 2004) are T/C and survivor count values, retold here.

This test deals with Lewis lung carcinoma i.m., BDF1 mice, T/C %. Description: NCI In Vivo Anticancer Drug Screen. Data for tumor model Lewis Lung Carcinoma (intramuscular) in B6D2F1 (BDF1) mice. The procedure, abridged: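 Mice carrying transplantable tumours received test compound. Survival or tumour size was recorded and expressed as the treated-group value (T) divided by the vehicle-treated control-group value (C).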

Setting [1] is: T/C endpoint: median survival time, dose: 1.5 mg/kg/injection, schedule: Q01DX011 (ip), vehicle: saline, higher T/C = longer survival.
Setting [2] is: T/C endpoint: median survival time, dose: 3.0 mg/kg/injection, schedule: Q01DX011 (ip), vehicle: saline, higher T/C = longer survival.
[3] abbreviates: T/C endpoint: median survival time, dose: 2.0 mg/kg/injection, schedule: Q01DX011 (ip), vehicle: saline, higher T/C = longer survival.
The mark [4] stands for this setting: T/C endpoint: median survival time, dose: 25.0 mg/kg/injection, schedule: Q01DX011 (ip), vehicle: saline, higher T/C = longer survival.
The mark [5] stands for this setting: T/C endpoint: median survival time, dose: 50.0 mg/kg/injection, schedule: Q01DX011 (ip), vehicle: saline, higher T/C = longer survival.

The list is a part of this screen's results and no random one: it gathers tests that were run many times, whatever their T/C, doses with no T/C, and many T/C values between a quarter and a half above the control. Other doses and runs of a compound stand elsewhere. T/C gives the treated animals as a percentage of the vehicle group. Schedules are NCI's codes, read here as Q, the interval in days (D) or hours (H), X, the number of doses. Some T/C values are followed by the survivors on the day toxicity was checked, most often the fifth; without a count, all were alive then. Some doses have a count of surviving animals in place of a T/C: the source holds a T/C of zero for them, seemingly a mark for toxic or unscored doses. Some doses without a T/C left all or most animals alive at the check, yet need not have been tolerated: survival well below the control is almost never listed, so the zero probably covers shortened survival too. Counts of survivors are from the toxicity check (mostly the fifth day) where no day follows; animals may have died later. Marks such as (2×) count equal records among those shown. Some entries hold several experiments; their values stand side by side, smallest first. Where survival is the endpoint, this PubChem deposit counts one and a half times the control or more as active, and values a quarter to a half above the control carry no call in these data; other NCI protocols may use other cut-offs.

Regarding `N[C@@H](Cc1ccc(N(CCCl)CCCl)cc1)C(=O)O`, the T/C (T/C endpoint: mean tumor weight, dose: 0.38 mg/kg/injection, schedule: Q01DX011 (ip), vehicle: saline, evaluated on day 12, higher T/C = larger tumour) is 134 % of control [7 of 8 alive]; the T/C (T/C endpoint: mean tumor weight, dose: 0.75 mg/kg/injection, schedule: Q01DX011 (ip), vehicle: saline, evaluated on day 12, higher T/C = larger tumour) was 131 % of control [7 of 8 alive]; the T/C (T/C endpoint: median survival time, dose: 1.2 mg/kg/injection, schedule: Q01DX011 (ip), vehicle: saline, higher T/C = longer survival) is 133 % of control; the T/C under setting [1] was 138 % of control; the T/C (T/C endpoint: median survival time, dose: 2.5 mg/kg/injection, schedule: Q01DX011 (ip), vehicle: saline, higher T/C = longer survival) is 144 % of control [9 of 10 alive]; the T/C under setting [2] is 130 % of control. Further, the T/C (T/C endpoint: median survival time, dose: 9.0 mg/kg/injection, schedule: Q01DX001 (ip), vehicle: saline, higher T/C = longer survival) is 129 % of control and the T/C (T/C endpoint: median survival time, dose: 15.0 mg/kg/injection, schedule: Q01DX001 (ip), vehicle: saline, higher T/C = longer survival) was 138 % of control. In addition, the survivor count is 1 of 8 and 3 of 8 (T/C endpoint: mean tumor weight, dose: 6.0 mg/kg/injection, schedule: Q01DX011 (ip), vehicle: saline, higher T/C = larger tumour); 8 of 8 (T/C endpoint: median survival time, dose: 0.38 mg/kg/injection, schedule: Q01DX011 (ip), vehicle: saline, higher T/C = longer survival); 6 of 8 under setting [1]; 8 of 8 (T/C endpoint: median survival time, dose: 3.0 mg/kg/injection, schedule: Q01DX011 (ip), vehicle: other, higher T/C = longer survival); 8 of 8 (2×) under setting [2]; 10 of 10 (T/C endpoint: median survival time, dose: 5.0 mg/kg/injection, schedule: Q01DX011 (ip), vehicle: saline, higher T/C = longer survival). Moreover, the survivor count was 4 of 8 (T/C endpoint: median survival time, dose: 6.0 mg/kg/injection, schedule: Q01DX011 (ip), vehicle: other, higher T/C = longer survival); 1 of 8 and 3 of 8 (2×) (T/C endpoint: median survival time, dose: 6.0 mg/kg/injection, schedule: Q01DX011 (ip), vehicle: saline, higher T/C = longer survival); 1 of 10 and 6 of 10 (T/C endpoint: median survival time, dose: 10.0 mg/kg/injection, schedule: Q01DX011 (ip), vehicle: saline, higher T/C = longer survival); 6 of 10 on day 45 (T/C endpoint: median survival time, dose: 25.0 mg/kg/injection, schedule: Q01DX001 (ip), vehicle: saline, higher T/C = longer survival).

As for `NC(=S)N/N=C/c1ccc(O)cn1`, the T/C (T/C endpoint: median survival time, dose: 20.0 mg/kg/injection, schedule: Q03HX024 (ip), vehicle: other, higher T/C = longer survival) was 127 % of control [7 of 8 alive]; the T/C (T/C endpoint: median survival time, dose: 50.0 mg/kg/injection, schedule: Q01DX009 (ip), vehicle: other, higher T/C = longer survival) was 144 % of control; the T/C (T/C endpoint: median survival time, dose: 50.0 mg/kg/injection, schedule: Q01DX011 (ip), vehicle: other, higher T/C = longer survival) is 139 % of control; the T/C (T/C endpoint: median survival time, dose: 100.0 mg/kg/injection, schedule: Q01DX011 (ip), vehicle: other, higher T/C = longer survival) was 138 % of control [7 of 8 alive]; the T/C (T/C endpoint: median survival time, dose: 400.0 mg/kg/injection, schedule: Q04DX003 (ip), vehicle: other, higher T/C = longer survival) was 131 % of control. Further, the survivor count is 6 of 8 (T/C endpoint: median survival time, dose: 40.0 mg/kg/injection, schedule: Q03HX024 (ip), vehicle: other, higher T/C = longer survival); 4 of 8 (T/C endpoint: median survival time, dose: 200.0 mg/kg/injection, schedule: Q01DX009 (ip), vehicle: other, higher T/C = longer survival); 0 of 8 (2×) (T/C endpoint: median survival time, dose: 200.0 mg/kg/injection, schedule: Q01DX011 (ip), vehicle: other, higher T/C = longer survival); 0 of 8 (T/C endpoint: median survival time, dose: 400.0 mg/kg/injection, schedule: Q01DX011 (ip), vehicle: other, higher T/C = longer survival); 0 of 8 (T/C endpoint: median survival time, dose: 800.0 mg/kg/injection, schedule: Q04DX003 (ip), vehicle: other, higher T/C = longer survival); 0 of 8 (T/C endpoint: median survival time, dose: 1600.0 mg/kg/injection, schedule: Q04DX003 (ip), vehicle: other, higher T/C = longer survival).

Regarding `CCN1/C(=C/C(C)=C/c2sc3ccccc3[n+]2CC)Sc2ccccc21`, the T/C (T/C endpoint: mean tumor weight (est.), dose: 25.0 micrograms/kg/injection, schedule: Q01DX011 (ip), vehicle: saline with Tween-80, evaluated on day 12, higher T/C = larger tumour) was 127 % of control. The survivor count by setting is: (T/C endpoint: mean tumor weight (est.), dose: 200.0 micrograms/kg/injection, schedule: Q01DX011 (ip), vehicle: saline with Tween-80, higher T/C = larger tumour) 4 of 8; (T/C endpoint: median survival time, dose: 25.0 micrograms/kg/injection, schedule: Q01DX011 (ip), vehicle: saline with Tween-80, higher T/C = longer survival) 8 of 8; (T/C endpoint: median survival time, dose: 200.0 micrograms/kg/injection, schedule: Q01DX011 (ip), vehicle: saline with Tween-80, higher T/C = longer survival) 4 of 8; (T/C endpoint: median survival time, dose: 400.0 micrograms/kg/injection, schedule: Q01DX011 (ip), vehicle: saline with Tween-80, higher T/C = longer survival) 0 of 8.

For the compound `Clc1ccc2nc(CI)c(CI)nc2c1`, the survivor count runs as follows: (T/C endpoint: mean tumor weight (est.), dose: 25.0 mg/kg/injection, schedule: Q01DX011 (ip), vehicle: saline with Tween-80, higher T/C = larger tumour) 3 of 8; (T/C endpoint: median survival time, dose: 25.0 mg/kg/injection, schedule: Q01DX011 (ip), vehicle: saline with Tween-80, higher T/C = longer survival) 3 of 8.

Regarding `CCN(CCO)CCNc1ccc(C)c2sc3ccccc3c(=O)c12`, the survivor count was 3 of 8 (T/C endpoint: mean tumor weight (est.), dose: 84.0 mg/kg/injection, schedule: Q01DX011 (ip), vehicle: saline, higher T/C = larger tumour); 3 of 8 (T/C endpoint: median survival time, dose: 84.0 mg/kg/injection, schedule: Q01DX011 (ip), vehicle: saline, higher T/C = longer survival); 0 of 8 (T/C endpoint: median survival time, dose: 168.0 mg/kg/injection, schedule: Q01DX011 (ip), vehicle: saline, higher T/C = longer survival).

`COc1c(C)c2c(c(O)c1C/C=C(\C)CCC(=O)O)C(=O)OC2`: for the setting “T/C endpoint: median survival time, dose: 200.0 mg/kg/injection, schedule: Q01DX011 (ip), vehicle: saline with Tween-80, higher T/C = longer survival”, the T/C is 130 % of control [6 of 8 alive]. For the same compound, the survivor count (T/C endpoint: median survival time, dose: 400.0 mg/kg/injection, schedule: Q01DX011 (ip), vehicle: saline with Tween-80, higher T/C = longer survival) was 0 of 8.

Regarding `C[C@H]1CN1C1=CC(=O)C(N2C[C@@H]2C)=CC1=O`, the T/C (T/C endpoint: median survival time, dose: 2.0 mg/kg/injection, schedule: Q01DX011 (ip), vehicle: saline with Tween-80, higher T/C = longer survival) is 136 % of control. Also, the survivor count (T/C endpoint: median survival time, dose: 8.0 mg/kg/injection, schedule: Q01DX011 (ip), vehicle: saline with Tween-80, higher T/C = longer survival) is reported as 0 of 8.

Turning to `CC[C@](O)(C(=O)O)c1cc2n(c(=O)c1CO)Cc1cc3ccccc3nc1-2`, the survivor count reads like this: (T/C endpoint: median survival time, dose: 0.25 mg/kg/injection, schedule: Q01DX011 (ip), vehicle: saline, higher T/C = longer survival) 6 of 8; under setting [3], 9 of 10; (T/C endpoint: median survival time, dose: 4.0 mg/kg/injection, schedule: Q01DX011 (ip), vehicle: saline, higher T/C = longer survival) 2 of 10 and 5 of 10; (T/C endpoint: median survival time, dose: 8.0 mg/kg/injection, schedule: Q01DX011 (ip), vehicle: saline, higher T/C = longer survival) 0 of 10 and 2 of 10.

Turning to `CC(=O)[O][Hg][c]1s[c]([Hg][O]C(C)=O)[c]([Hg][O]C(C)=O)[c]1[Hg][O]C(C)=O`, the survivor count is, setting by setting: (T/C endpoint: mean tumor weight (est.), dose: 25.0 mg/kg/injection, schedule: Q01DX011 (ip), vehicle: saline, higher T/C = larger tumour) 4 of 8; (T/C endpoint: median survival time, dose: 6.25 mg/kg/injection, schedule: Q01DX011 (ip), vehicle: saline, higher T/C = longer survival) 6 of 8; under setting [4], 4 of 8; under setting [5], 0 of 8.

For the compound `C[C@]12CC[C@H](OC3OC(CO)C(O)C(O)C3O)C[C@H]1CC[C@@H]1[C@@H]2CC[C@]2(C)[C@@H](C3=CCOC3=O)CC[C@]12O` (stereo partly drawn), the survivor count runs as follows: (T/C endpoint: median survival time, dose: 0.5 mg/kg/injection, schedule: Q01DX011 (ip), vehicle: saline, higher T/C = longer survival) 7 of 8; (T/C endpoint: median survival time, dose: 1.0 mg/kg/injection, schedule: Q01DX011 (ip), vehicle: saline, higher T/C = longer survival) 0 of 8; under setting [3], 0 of 8; under setting [4], 0 of 8; under setting [5], 0 of 8; (T/C endpoint: median survival time, dose: 100.0 mg/kg/injection, schedule: Q01DX011 (ip), vehicle: saline, higher T/C = longer survival) 0 of 8. For the same compound, the survivor count (T/C endpoint: median survival time, dose: 200.0 mg/kg/injection, schedule: Q01DX011 (ip), vehicle: saline, higher T/C = longer survival) is given as 0 of 8.
